US4374139A, “Levorotatory N-substituted acylmorphinans useful as analgesic agents” (priority 1981, dated 1983)
Where two headings read alike, the source gives them in different places.

Columns and labels:
[1] = system: mice exposed to intra-abdominally induced chemical pain; experiment: animal or person; format: in vivo; conditions: Mus musculus
Procedure: (§1) The ED50 was the dose which reduced the total number of writhes by 50%. […] A modification of the tail flick test described by Dewey and Harris (in: S. Ehrenpreis and A. Neidle (eds.), Methods in Narcotics Research, Marcel Dekker, Inc., New York, 1975, pp. 101-108) was used to measure the tail flick reaction times following oral or subcutaneous administration of the compounds of formula I of the invention.
Doses were calculated as the salts of all the compounds. Injection volume was 0.1 ml/10 g body weight. For each test compound, ED 50 values were calculated separately for each test. Log dose regression analysis and Fieller's Theorem were used to compute the ED 50 and its 95 percent confidence limits. The analysis was performed on the tail flick latency scores of all mice that were treated with a test compound. For any given test, the average tail flick latency score of the vehicle control group was calculated and a latency value, Z, was derived from this, as follows: [formula] where the cutoff time was 10 seconds. […] The value of Z was entered as an interpolate into the regression analysis so that an ED50, defined as the dose that increased tail flick latencies by 50 percent of the maximum possible response, could be computed.

[2] = system: mice exposed to radiant heat stimulus on the tail; experiment: animal or person; format: in vivo, male mice (Charles River, CF-1/CD); conditions: Mus musculus
Source text: as §1
More specifically, groups of 10 male mice (Charles River, CF-1/CD, 18-22 gm) were placed in individual stainless steel, ventilated, cylindrical restrainers with their tails protruding through a hole at one end. The restraining tubes were positioned on a sliding platform so that each mouse, in turn, could be exposed to a high intensity lamp. The rays from the lamp were focused by means of a parabolic reflector directly on the tail. […] The reaction time of each mouse was determined before and again 30,60,90 and 120 minutes after treatment. […]
Doses were calculated as the salts of all the compounds. […] For each test compound, ED 50 values were calculated separately for each test. […] For any given test, the average tail flick latency score of the vehicle control group was calculated and a latency value, Z, was derived from this, as follows: [formula] where the cutoff time was 10 seconds. […]

CN1CC[C@]23c4c5ccc(O)c4O[C@H]2[C@@H](O)C=C[C@H]3[C@H]1C5.O=S(=O)(O)O [Morphine Sulfate, reference compound]
ED50 ([1]; po, read-out: ED50 Writhing Oral): 2.2 mg/kg | ED50 ([1]; sc, read-out: ED50 Writhing Subcu.): 0.26 mg/kg | ED50 ([2]; po, read-out: ED50 Tail Flick Oral): 26.8 mg/kg | ED50 ([2]; sc, read-out: ED50 Tail Flick Subcu.): 6 mg/kg
